# Measurements published in the supplement of paper PMC4604168 (melanoma cell lines).
# This is one part of the list. Single values are uncertain, as repeats are few or missing.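 Imaging used 1,536-well plates; nuclei positive for cleaved PARP by antibody were divided by total DNA-stained nuclei to yield the apoptosis fraction. Doses for screening kept most cells viable, and cell lines differ markedly in resting and induced cleaved-PARP levels.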
# Test system: CBRC014 (line from a melanoma biopsy)
# Assay: cleaved PARP positive nuclei fraction relative to DMSO control; melanoma cells; higher = more apoptosis
# Conditions: library dose: low library concentration; 72 h
row,Compound,cleaved PARP positive nuclei fraction [%]
1,"COc1ccc2c(c1)CCC1C2CCC2(C)C(NCCCCCCN3C(=O)C=CC3=O)CCC12 (stereo unspecified) + Oc1cc(-c2nc(-c3ccccc3)[nH]c2-c2ccncc2)ccc1Cl [L779450] (first compound 0.4 µM, partner dose 0.2 µM)",196
2,"CN(C)S(=O)(=O)c1ccc2c(c1)/C(=C/c1cc3c([nH]1)CCCC3)C(=O)N2 + O=C(O)C(=O)Nc1sc2c(c1C(=O)O)CCNC2 [TCS401] (first compound 0.4 µM, partner dose 1.66667 µM)",90.5
3,"COc1ccc(-c2ccc3c(N4CCOCC4)nc(N4C[C@@H](C)O[C@@H](C)C4)nc3n2)cc1CO + COc1cc(N2CCC(N3CCN(C)CC3)CC2)ccc1Nc1ncc(Cl)c(Nc2ccccc2S(=O)(=O)C(C)C)n1 [NVP-TAE684] (first compound 0.02 µM, partner dose 0.08 µM)",94.2
4,"COc1cc2c(Oc3ccc4[nH]c(C)cc4c3F)ncnc2cc1OCCCN1CCCC1 [cediranib] + Oc1cc(-c2nc(-c3ccccc3)[nH]c2-c2ccncc2)ccc1Cl [L779450] (first compound 0.4 µM, partner dose 0.2 µM)",132
5,"O=C(Nc1ccccc1)c1cc([N+](=O)[O-])ccc1Cl + Oc1cc(-c2nc(-c3ccccc3)[nH]c2-c2ccncc2)ccc1Cl [L779450] (first compound 2 µM, partner dose 0.2 µM)",102
6,"O=C(Nc1ccccc1)c1cc([N+](=O)[O-])ccc1Cl + CCCCCCCCCCCC1=C(O)C(=O)C=C(O)C1=O [Embelin] (first compound 2 µM, partner dose 1.2 µM)",82.5
